Source: article PMC8933275
These are yes or no findings as the source states them, for the method shown. In cells and extracts the contact can be indirect. Some entries that bind do so weakly or less than the wild type.

Chains of the proteins cited; added tags and fusions are not shown. Residues count along the entry.
UniProt P01033, residues 24-207: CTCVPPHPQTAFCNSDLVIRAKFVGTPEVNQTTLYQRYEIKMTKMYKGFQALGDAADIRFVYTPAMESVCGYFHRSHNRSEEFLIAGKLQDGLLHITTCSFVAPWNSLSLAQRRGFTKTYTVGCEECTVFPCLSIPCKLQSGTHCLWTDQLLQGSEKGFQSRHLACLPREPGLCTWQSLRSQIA

What was measured:
[1] = molecular target: TIMP1 in liver-derived primary fibroblasts (pFs) (UniProt P01033); test: co-IP; immunoprecipitation of TIMP1 from pFs treated with CRC-EVs (HCT116, HT29, SW620) for 48 h; immunoblot of the immunocomplexes
[2] = molecular target: TIMP1 in liver-derived primary fibroblasts (pFs) (UniProt P01033); test: condition: only pFs treated with CM instead of CRC-EVs; co-IP; immunoprecipitation of TIMP1 from CM-treated pFs (controls, conditioned medium depleted of EVs); immunoblot of the immunocomplexes
[3] = molecular target: Extravesicular tissue inhibitor of matrix metalloproteinase-1 (TIMP1^EV) (human (endogenous in EVs of HCT116, HT29, SW620)) (UniProt P01033); test: co-IP; immunoprecipitation of TIMP1 with an anti-TIMP1 antibody from EVs of CRC cell lines (HCT116, HT29, SW620); rabbit isotype control IgG as negative control; immunoblot for CD63, HSP90AA and TIMP1

| binding [1] | binding [2] | binding [3] | Substance |
| --- | --- | --- | --- |
| binds | no binding |  | HSP90AA in liver-derived primary fibroblasts (pFs) (from UniProt P07900 1-732) |
|  |  | binds | HSP90AA (from UniProt P07900 1-732) |
